Laboratory results published in patent US20260131324A1, “A CONTAINER FOR IN VITRO DRUG TESTING” (National University of Singapore, priority 2022, published 2026).
Some values come without a unit; they compare only within their column.

Experiment: Proof-of-concept model: diffusion through agarose hydrogel container (version 1.0) in modified flow-through cell
Assay type: physicochemical
Settings: m-cresol in Actrapid vs m-cresol in Apidra
Source text: FIG. 4A illustrates a hydrogel container 402 (left) and a modified flow-through cell 404 (right) used as a proof-of-concept model for the diffusion experiment shown in the first flow chart 300A of FIG. 3. The proof-of-concept model was designed to affirm the discriminative power of an agarose hydrogel under continuous media flow. Serving as a physicochemical barrier between drug and media, it is supposed to generate data ascertaining differences in diffusion behaviour and gel interaction of closely related drug formulations. For this, Actrapid® (regular human insulin, hexamer) and Apidra® (insulin glulisine) were chosen as model peptide formulations for the initial setup. m-Cresol, present in both formulations, was quantified as well, serving as an internal standard.
A cylindrical gel that forms both the physicochemical barrier and pocket was prepared with the help of custom-made plastic receptacles. The gel consists of 2% (w/w) agarose dissolved in PBS. […] After cooling at room temperature, the gel is formed and ready to use. […]
FIG. 4B illustrates an assay setup for the proof-of-concept model of FIG. 4A for in vitro drug testing. […] Quantification of insulin and m-cresol in the medium was then carried out by HPLC. Subsequently, the cumulative diffusion of the model drugs was calculated by comparing the diffused amount with the initially added drug concentration. […]

Cc1cccc(O)c1 [m-cresol, m-Cresol]
difference factor f1 of m-cresol diffusion profiles: 5 | similarity factor f2 of m-cresol diffusion profiles: 71
